Data source: PubChem BioAssay AID1224830 (NIAID, 2016)
Assay: 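Genes whose knock-down alters the TNF-alpha reporter response to LPS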 (primary screen). Cell system: human THP-1 monocytic leukaemia cells, TNF dual-luciferase reporter clone, PMA-differentiated to macrophage-like cells. Knock-down reagent: siRNA pool against human genes, 50 nM. Timing: LPS for 4 h, given about 3 days after siRNA transfection. Conditions: bacterial LPS (TLR4 ligand), 10 ng/ml. Measured: 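TNF firefly reporter luminescence divided by renilla, normalised to the plate median, then turned into a robust z-score for each replicate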. Direction: TNF reporter robust z-score: higher = stronger TNF reporter response to LPS. Rule for the call: 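Each well counts as active if its z-score is over 2.8 or under -1.5; controls are left without a call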.
Shown is one part, drawn at random, of about 18,000 reagents tested. Over the whole deposit, about 2,900 (16%) got an active call. 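Calls are made per well; low scores hint the gene aids the LPS response, high scores that it dampens it.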 Repeated entries: four replicate wells of each siRNA pool.

| Target gene | PubChem SID | TNF reporter robust z-score | Call |
| --- | --- | --- | --- |
| ANKRD9 (ankyrin repeat domain 9) | SID315461544 | -0.5 | inactive |
| ANKRD9 (ankyrin repeat domain 9) | SID315461544 | -0.12 | inactive |
| ANKRD9 (ankyrin repeat domain 9) | SID315461544 | -1.08 | inactive |
| ANKRD9 (ankyrin repeat domain 9) | SID315461544 | -1.26 | inactive |
| RIMKLB (ribosomal modification protein rimK like family member B) | SID315458417 | – | inactive |
| MED13 (mediator complex subunit 13) | SID315453717 | 2.2 | inactive |
| MED13 (mediator complex subunit 13) | SID315453717 | 0.81 | inactive |
| MED13 (mediator complex subunit 13) | SID315453717 | 0.7 | inactive |
| MED13 (mediator complex subunit 13) | SID315453717 | 1.31 | inactive |
| ZC3H7B (zinc finger CCCH-type containing 7B) | SID315455118 | 1.67 | inactive |
| ZC3H7B (zinc finger CCCH-type containing 7B) | SID315455118 | 0.97 | inactive |
| ZC3H7B (zinc finger CCCH-type containing 7B) | SID315455118 | 2 | inactive |
| ZC3H7B (zinc finger CCCH-type containing 7B) | SID315455118 | 1.47 | inactive |
| PRTN3 (proteinase 3) | SID315450868 | 1.71 | inactive |
| PRTN3 (proteinase 3) | SID315450868 | 2.98 | active |
| PRTN3 (proteinase 3) | SID315450868 | 0.62 | inactive |
| PRTN3 (proteinase 3) | SID315450868 | -0.25 | inactive |
| WDR72 (WD repeat domain 72) | SID315463536 | -0.02 | inactive |
| WDR72 (WD repeat domain 72) | SID315463536 | -0.22 | inactive |
| WDR72 (WD repeat domain 72) | SID315463536 | 0.24 | inactive |
| WDR72 (WD repeat domain 72) | SID315463536 | 0.36 | inactive |
| LHX8 (LIM homeobox 8) | SID315464876 | 0.88 | inactive |
| LHX8 (LIM homeobox 8) | SID315464876 | -0.47 | inactive |
| LHX8 (LIM homeobox 8) | SID315464876 | -0.11 | inactive |
| LHX8 (LIM homeobox 8) | SID315464876 | -0.52 | inactive |
| GDAP1 (ganglioside induced differentiation associated protein 1) | SID315456985 | 1.4 | inactive |
| GDAP1 (ganglioside induced differentiation associated protein 1) | SID315456985 | 0 | inactive |
| GDAP1 (ganglioside induced differentiation associated protein 1) | SID315456985 | 1.16 | inactive |
| GDAP1 (ganglioside induced differentiation associated protein 1) | SID315456985 | 1.98 | inactive |
| DEFB114 (defensin beta 114) | SID315463379 | -0.91 | inactive |
| DEFB114 (defensin beta 114) | SID315463379 | -0.53 | inactive |
| DEFB114 (defensin beta 114) | SID315463379 | -1.67 | active |
| DEFB114 (defensin beta 114) | SID315463379 | -1.41 | inactive |
| RSL1D1 (ribosomal L1 domain containing 1) | SID315455698 | -0.06 | inactive |
| RSL1D1 (ribosomal L1 domain containing 1) | SID315455698 | 0.75 | inactive |
| RSL1D1 (ribosomal L1 domain containing 1) | SID315455698 | -0.22 | inactive |
| RSL1D1 (ribosomal L1 domain containing 1) | SID315455698 | -0.17 | inactive |
| ADCY1 (adenylate cyclase 1) | SID315447185 | -0.56 | inactive |
| ADCY1 (adenylate cyclase 1) | SID315447185 | 0.61 | inactive |
| ADCY1 (adenylate cyclase 1) | SID315447185 | 0.05 | inactive |
| ADCY1 (adenylate cyclase 1) | SID315447185 | -0.08 | inactive |
| OSBPL6 (oxysterol binding protein like 6) | SID315461262 | 0.53 | inactive |
| OSBPL6 (oxysterol binding protein like 6) | SID315461262 | 1.07 | inactive |
| OSBPL6 (oxysterol binding protein like 6) | SID315461262 | 0.99 | inactive |
| OSBPL6 (oxysterol binding protein like 6) | SID315461262 | 1.7 | inactive |
| SKOR2 (SKI family transcriptional corepressor 2) | SID315465134 | -0.53 | inactive |
| SKOR2 (SKI family transcriptional corepressor 2) | SID315465134 | -0.64 | inactive |
| SKOR2 (SKI family transcriptional corepressor 2) | SID315465134 | -0.35 | inactive |
| SKOR2 (SKI family transcriptional corepressor 2) | SID315465134 | 1.09 | inactive |
| PHACTR3 (phosphatase and actin regulator 3) | SID315461353 | -0.21 | inactive |
| PHACTR3 (phosphatase and actin regulator 3) | SID315461353 | -0.55 | inactive |
| PHACTR3 (phosphatase and actin regulator 3) | SID315461353 | -1.18 | inactive |
| TPPP3 (tubulin polymerization promoting protein family member 3) | SID315456842 | -1.21 | inactive |
| TPPP3 (tubulin polymerization promoting protein family member 3) | SID315456842 | -0.72 | inactive |
| TPPP3 (tubulin polymerization promoting protein family member 3) | SID315456842 | -0.52 | inactive |
| TPPP3 (tubulin polymerization promoting protein family member 3) | SID315456842 | 0.33 | inactive |
| KIAA0319L (KIAA0319 like) | SID315459572 | -0.32 | inactive |
| KIAA0319L (KIAA0319 like) | SID315459572 | -0.92 | inactive |
| KIAA0319L (KIAA0319 like) | SID315459572 | -0.13 | inactive |
| KIAA0319L (KIAA0319 like) | SID315459572 | -0.16 | inactive |
| HDAC5 (histone deacetylase 5) | SID315453752 | 0 | inactive |
| HDAC5 (histone deacetylase 5) | SID315453752 | 0.38 | inactive |
| HDAC5 (histone deacetylase 5) | SID315453752 | -0.11 | inactive |
| HDAC5 (histone deacetylase 5) | SID315453752 | 0.55 | inactive |
| DLK2 (delta like non-canonical Notch ligand 2) | SID315459120 | 0.21 | inactive |
| DLK2 (delta like non-canonical Notch ligand 2) | SID315459120 | 0.9 | inactive |
| DLK2 (delta like non-canonical Notch ligand 2) | SID315459120 | 0.27 | inactive |
| DLK2 (delta like non-canonical Notch ligand 2) | SID315459120 | 1.17 | inactive |
| SPATA6L (spermatogenesis associated 6 like) | SID315457378 | -0.05 | inactive |
| SPATA6L (spermatogenesis associated 6 like) | SID315457378 | 0.68 | inactive |
| SPATA6L (spermatogenesis associated 6 like) | SID315457378 | 0.87 | inactive |
| SPATA6L (spermatogenesis associated 6 like) | SID315457378 | -0.16 | inactive |
| BEND6 (BEN domain containing 6) | SID315463286 | 0.76 | inactive |
| BEND6 (BEN domain containing 6) | SID315463286 | 0.25 | inactive |
| BEND6 (BEN domain containing 6) | SID315463286 | 0.56 | inactive |
| BEND6 (BEN domain containing 6) | SID315463286 | 1.06 | inactive |
| NDUFA11 (NADH:ubiquinone oxidoreductase subunit A11) | SID315461704 | 0.03 | inactive |
| NDUFA11 (NADH:ubiquinone oxidoreductase subunit A11) | SID315461704 | 0.02 | inactive |
| NDUFA11 (NADH:ubiquinone oxidoreductase subunit A11) | SID315461704 | 1.55 | inactive |
| NDUFA11 (NADH:ubiquinone oxidoreductase subunit A11) | SID315461704 | -0.03 | inactive |
| UBE2QL1 (ubiquitin conjugating enzyme E2 QL1) | SID315461957 | 1.01 | inactive |
| UBE2QL1 (ubiquitin conjugating enzyme E2 QL1) | SID315461957 | 3.26 | active |
| UBE2QL1 (ubiquitin conjugating enzyme E2 QL1) | SID315461957 | -0.09 | inactive |
| UBE2QL1 (ubiquitin conjugating enzyme E2 QL1) | SID315461957 | 2.46 | inactive |
| SFTPA1 (surfactant protein A1) | SID315451393 | -0.23 | inactive |
| SFTPA1 (surfactant protein A1) | SID315451393 | 0.7 | inactive |
| SFTPA1 (surfactant protein A1) | SID315451393 | 0.37 | inactive |
| SFTPA1 (surfactant protein A1) | SID315465154 | 0.37 | inactive |
| SFTPA1 (surfactant protein A1) | SID315465154 | -0.32 | inactive |
| SFTPA1 (surfactant protein A1) | SID315465154 | -0.31 | inactive |
| SFTPA1 (surfactant protein A1) | SID315465154 | -0.33 | inactive |
| MGST2 (microsomal glutathione S-transferase 2) | SID315449968 | -0.68 | inactive |
| MGST2 (microsomal glutathione S-transferase 2) | SID315449968 | -0.31 | inactive |
| MGST2 (microsomal glutathione S-transferase 2) | SID315449968 | -0.01 | inactive |
| MGST2 (microsomal glutathione S-transferase 2) | SID315449968 | 4.2 | active |
| RPL21P44 (ribosomal protein L21 pseudogene 44) | SID315464815 | -0.66 | inactive |
| RPL21P44 (ribosomal protein L21 pseudogene 44) | SID315464815 | -0.01 | inactive |
| RPL21P44 (ribosomal protein L21 pseudogene 44) | SID315464815 | -0.8 | inactive |
| RPL21P44 (ribosomal protein L21 pseudogene 44) | SID315464815 | -0.78 | inactive |
| ADGRF2P (adhesion G protein-coupled receptor F2, pseudogene) | SID315463349 | -0.16 | inactive |
| ADGRF2P (adhesion G protein-coupled receptor F2, pseudogene) | SID315463349 | -0.28 | inactive |
| ADGRF2P (adhesion G protein-coupled receptor F2, pseudogene) | SID315463349 | 0.77 | inactive |
| ADGRF2P (adhesion G protein-coupled receptor F2, pseudogene) | SID315463349 | 1.46 | inactive |
| MLEC (malectin) | SID315453543 | 0.21 | inactive |
| MLEC (malectin) | SID315453543 | -0.01 | inactive |
| MLEC (malectin) | SID315453543 | 0.99 | inactive |
| MLEC (malectin) | SID315453543 | 1.14 | inactive |
| SAXO1 (stabilizer of axonemal microtubules 1) | SID315462655 | 0.71 | inactive |
| SAXO1 (stabilizer of axonemal microtubules 1) | SID315462655 | 0.94 | inactive |
| SAXO1 (stabilizer of axonemal microtubules 1) | SID315462655 | 2.04 | inactive |
| SAXO1 (stabilizer of axonemal microtubules 1) | SID315462655 | 2.01 | inactive |
